Data reported in PMC12126530.
Results are given in words; binding and its absence hold for the method and conditions named. Binding can be weak; no strength is given.

The chains behind the UniProt entries cited, without tags or fusion partners. Where a name states a change or a piece, a line headed by the entry shows the natural chain unless it says otherwise. Residues count along the entry.
UniProt P11142: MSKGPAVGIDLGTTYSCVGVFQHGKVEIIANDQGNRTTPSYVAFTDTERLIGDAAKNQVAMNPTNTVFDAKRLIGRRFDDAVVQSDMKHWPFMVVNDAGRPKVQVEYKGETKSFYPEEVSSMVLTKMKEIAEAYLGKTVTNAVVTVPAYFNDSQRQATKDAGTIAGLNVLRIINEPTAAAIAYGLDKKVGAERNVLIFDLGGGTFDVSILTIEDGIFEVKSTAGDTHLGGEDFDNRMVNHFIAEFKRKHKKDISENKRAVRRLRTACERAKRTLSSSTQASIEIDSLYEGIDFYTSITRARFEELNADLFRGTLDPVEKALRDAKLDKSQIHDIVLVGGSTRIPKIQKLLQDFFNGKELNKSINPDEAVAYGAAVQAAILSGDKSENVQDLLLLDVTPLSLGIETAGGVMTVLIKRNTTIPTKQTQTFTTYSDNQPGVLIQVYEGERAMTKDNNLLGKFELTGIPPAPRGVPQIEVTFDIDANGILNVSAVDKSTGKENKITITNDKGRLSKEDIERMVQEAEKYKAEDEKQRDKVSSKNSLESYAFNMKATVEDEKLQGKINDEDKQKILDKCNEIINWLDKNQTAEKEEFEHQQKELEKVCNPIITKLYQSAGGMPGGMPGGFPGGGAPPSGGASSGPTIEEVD
UniProt P25685, residues 1-110: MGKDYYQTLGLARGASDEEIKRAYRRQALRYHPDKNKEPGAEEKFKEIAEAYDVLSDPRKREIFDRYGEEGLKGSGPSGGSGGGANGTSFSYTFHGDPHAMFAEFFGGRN

Target: β-stranded Hsc70 SBD subdomain (SBDβ) (human) (UniProt P11142)
Test: NMR titration; unlabelled SBDβ added to labelled DNAJB1 JD-GF-α5; ratio of the resonance intensities in the apo versus the SBDβ bound samples; 25 °C; both purified

binding: binds
Substance: DNAJB1 JD-GF-α5 (from UniProt P25685 1-110) (domain or fragment)
